# Results are given in words; binding and its absence hold for the method and conditions named. Binding seen in cells or lysates may run through a third protein. Some entries that bind do so weakly or less than the wild type.
# By UniProt entry, the sequences of proteins in these tests, tags left out. Where a name states a change or a piece, a line headed by the entry shows the natural chain unless it says otherwise.
# UniProt Q9UMS4: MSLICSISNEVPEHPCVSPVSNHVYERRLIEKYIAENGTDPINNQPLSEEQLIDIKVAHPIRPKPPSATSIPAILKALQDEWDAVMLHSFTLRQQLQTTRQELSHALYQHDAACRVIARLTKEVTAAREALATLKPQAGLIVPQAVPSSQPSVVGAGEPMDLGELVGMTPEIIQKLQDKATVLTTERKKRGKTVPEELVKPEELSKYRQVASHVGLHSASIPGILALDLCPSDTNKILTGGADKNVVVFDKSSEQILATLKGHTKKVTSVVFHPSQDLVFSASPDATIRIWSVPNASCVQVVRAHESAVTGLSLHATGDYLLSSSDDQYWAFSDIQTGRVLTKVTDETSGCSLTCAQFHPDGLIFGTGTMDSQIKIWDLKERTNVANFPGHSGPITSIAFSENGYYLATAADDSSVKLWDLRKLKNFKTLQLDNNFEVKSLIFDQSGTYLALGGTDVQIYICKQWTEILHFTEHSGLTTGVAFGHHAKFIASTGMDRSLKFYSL
# UniProt P17844: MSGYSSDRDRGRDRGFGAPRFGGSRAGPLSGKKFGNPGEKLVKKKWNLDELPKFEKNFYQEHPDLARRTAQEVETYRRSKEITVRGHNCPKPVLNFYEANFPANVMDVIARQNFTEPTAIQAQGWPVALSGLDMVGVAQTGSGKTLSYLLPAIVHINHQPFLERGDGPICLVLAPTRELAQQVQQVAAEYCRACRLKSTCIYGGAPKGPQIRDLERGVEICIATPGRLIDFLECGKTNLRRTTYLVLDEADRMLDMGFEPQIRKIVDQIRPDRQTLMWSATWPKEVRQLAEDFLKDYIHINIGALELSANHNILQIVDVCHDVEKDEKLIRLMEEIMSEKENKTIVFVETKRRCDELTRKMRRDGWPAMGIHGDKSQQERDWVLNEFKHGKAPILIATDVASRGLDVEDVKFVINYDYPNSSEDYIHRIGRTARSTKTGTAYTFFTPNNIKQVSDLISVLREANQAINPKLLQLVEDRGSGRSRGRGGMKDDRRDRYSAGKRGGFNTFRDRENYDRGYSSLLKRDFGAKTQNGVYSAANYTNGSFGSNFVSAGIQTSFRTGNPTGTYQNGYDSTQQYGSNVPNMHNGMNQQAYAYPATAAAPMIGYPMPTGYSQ
# Assays:
# [1] = target: PRP19-Myc (without domain mutation) (UniProt Q9UMS4); experiment: co-IP; HEK293T cells transfected with PRP19-Myc plasmids (domain mutations) for 48 h; lysates precipitated with anti-DDX5 and with anti-Myc antibodies, western blot
# [2] = target: Pre-mRNA processing factor 19 (PRP19), endogenous in HCC cells (not stated (endogenous in HCC cells; human Huh7, PLC/PRF/5 or mouse Hepa1-6)) (UniProt Q9UMS4); experiment: co-IP; reciprocal co-IP of endogenous PRP19 and DDX5 in HCC cells; IP lysis buffer, antibody overnight at 4 °C, Protein A magnetic beads, five washes, western blot
binding [1],binding [2],Substance
binds,,DDX5 in HEK293T cells (from UniProt P17844 1-614)
,binds,"DEAD-box helicase 5 (DDX5), endogenous in HCC cells (from UniProt P17844 1-614)"
